Experimental data published in PubChem BioAssay AID1439 (NMMLSC, 2008).
Screen size: about 220,000 compounds; about 770 (0.35%) were called active. Inconclusive results, whose numbers are uncertain, are shown with a selection of clear calls. Rule as the data show it: active = binding response below about 49% or above about 150%; inconclusive = no clear call, values can overlap the other calls; inactive = in between.

The chains behind the UniProt entries cited, without tags or fusion partners.
UniProt P09471, whole entry, looked up: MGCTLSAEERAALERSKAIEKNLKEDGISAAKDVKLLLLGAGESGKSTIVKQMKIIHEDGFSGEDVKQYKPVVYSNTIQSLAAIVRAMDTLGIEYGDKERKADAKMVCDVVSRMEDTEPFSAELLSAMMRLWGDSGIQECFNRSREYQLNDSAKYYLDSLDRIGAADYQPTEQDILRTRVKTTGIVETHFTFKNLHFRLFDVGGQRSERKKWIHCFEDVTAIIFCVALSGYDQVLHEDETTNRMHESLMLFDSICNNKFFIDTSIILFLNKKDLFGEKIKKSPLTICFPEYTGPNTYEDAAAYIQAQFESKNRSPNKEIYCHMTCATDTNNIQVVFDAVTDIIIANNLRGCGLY

target: Guanine nucleotide-binding protein G(o) subunit alpha (Homo sapiens) (UniProt P09471); test: RGS7-Galphao binding modulators, primary screen, biochemical, multiplexed bead flow cytometry (AID 1439); details: at 10 µM, actives lie on both sides;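 also: fluorescent Galphao held in activated GDP-AlF4 state binding bead-coupled RGS7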

SMILES	binding response (% of control)
Cc1cc(S(=O)(=O)Nc2c(C)nn(C)c2C)c(Cl)cc1Cl	inconclusive: 102%
Cc1cnc(NC(=O)CSc2nnc(COc3c(C)cccc3C)o2)s1	inactive: 113%
COc1ccc2[nH]c(=O)c(CNc3ccccc3C)cc2c1	inconclusive: -225%
NS(=O)(=O)c1cccc(NC(=O)Cc2ccc(Cl)c(Cl)c2)c1	active: 167% [activator]
CC(C)[C@H](NC(=O)c1ccc(C(C)(C)C)cc1)C(=O)Nc1nnc(C2CC2)s1	inactive: 100%
O=C(Nc1nnc(-c2cccs2)s1)c1cccc(F)c1	inactive: 109%
COc1cccc(/C=N/n2c(-c3cc(C)[nH]n3)n[nH]c2=S)c1O	inconclusive: 243%
S=C(NCCc1ccccn1)Nc1ccc(Cl)cc1Cl	inactive: 103%
COc1ccc(CC(=O)NC(C)c2nnc(SCCOc3ccc(OC)cc3)n2C)cc1 (stereo unspecified)	inactive: 102%
Cc1ccccc1C(=O)Nc1ccc(N2CCCCCC2)cc1	inactive: 91.3%
CCN(CC)CCCN=Cc1c(O)n(-c2ccccc2C)c(=O)c2ccccc12	inconclusive: 183%
CCCCC(=O)N/C(N)=N/c1nc2ccccc2o1	inconclusive: 288%
Nc1nc(NC(=O)c2ccccc2Cl)nn1-c1ccccc1	inconclusive: 114%
C/C(CC(=O)Nc1cccc(Cl)c1C)=N\NC(=O)Cc1csc(N)n1	inconclusive: 96.3%
CC(C)=CCN1CCN(Cc2ccc(C)s2)CC1CCO (stereo unspecified)	inconclusive: 105%
NC(=O)N=Nc1c(O)[nH]c2ccc([N+](=O)[O-])cc12	inconclusive: 98.8%
Cc1cc(C(C)C)n2c(nc3ccccc32)c1C#N	inconclusive: 113%
Cc1cc(/C=C2\C(=N)N3N=C(C(C)C)SC3=NC2=O)c(C)n1Cc1ccccc1	inconclusive: 103%
Cc1ccc(NC(=O)C[n+]2cc(-c3ccc(C)cc3)n3c2CCC3)cc1	inconclusive: 85.4%
C/C(=N\NC(N)=S)c1ccc2c(c1)OCCO2	inconclusive: 217%
COCC(=O)OCc1cc2cccc(C)c2[nH]c1=O	inconclusive: 146%
Cc1ccc(OCC(=O)O/N=C(\N)c2ccccn2)cc1C	inconclusive: 86.2%
CC(C(=O)OCC(=O)Nc1cccc(S(=O)(=O)N(C)C)c1)N1C(=O)c2ccccc2C1=O (stereo unspecified)	inconclusive: 109%

SMILES	binding response (% of control)
CCN1CCCC1CNCC(=O)Nc1ccc(OC(F)(F)F)cc1 (stereo unspecified)	inconclusive: 113%
COc1cc(CCC(=O)OCC(=O)NCC2CCCCC2)cc(OC)c1OC	inconclusive: 115%
COc1ccc(CNC(=S)N2CCN(S(=O)(=O)c3cccc(F)c3)CC2)cc1	inconclusive: 139%
O=c1c2ccccc2c(C=Nc2ccccc2O)c(O)n1-c1nccs1	inconclusive: 117%
CCCN1C(=O)c2[nH]nc(-c3cc(Cl)c(C)cc3O)c2C1c1ccc(O)c(OC)c1 (stereo unspecified)	inconclusive: 81.8%
NC(=O)C1CCN(c2ncc(C(F)(F)F)cc2Cl)CC1	inconclusive: 77.2%
OC1CCCN(CC(O)COC(c2ccccc2)c2ccccc2)C1 (stereo unspecified)	inconclusive: 111%
Cc1ccc(CSc2nnc([C@@H]3CCCN3C(=O)OC(C)(C)C)o2)cc1	inconclusive: 91.8%
O=C(c1ccc(CSc2nc3ccncc3[nH]2)cc1)N1CCCCCC1	inconclusive: 113%
O=C(COC(=O)c1ccc2ccccc2c1O)NCC(F)(F)F	inconclusive: 93.2%
c1ccc(-c2nnc(-c3ccncc3)nc2-c2ccccc2)cc1	inconclusive: 89.7%
Cc1cc(NC(=S)N(CCCN2CCN(C)CC2)Cc2ccco2)ccc1Cl	inconclusive: 82%
CNC(=O)Nc1ccc2nc(C)oc2c1	inconclusive: 46.4%
CCOC(=O)C1(CCOc2ccccc2)CCN(Cc2ccc(-n3cccn3)cc2)CC1	inactive: 98.9%
COCCOC(=O)c1c(C)oc2ccc(OCC=C(C)C)cc12	inactive: 110%
COc1ccccc1N1CCN(C(=O)c2cccc(Oc3ccccc3)c2)CC1	inconclusive: 106%
COc1ccc(CNC(=O)c2coc(=O)c3ccccc23)c(OC)c1	inconclusive: 114%
Cc1ccc(S(=O)(=O)CCC(=O)Nc2ccc(S(=O)(=O)N(C)C)cc2)cc1	inactive: 94.1%
Cc1nnc(SCC(=O)N2CCCCC2)n1CC1CCCO1 (stereo unspecified)	inactive: 101%
O=C(NCCN1C(=O)S/C(=C/c2cccnc2)C1=O)C1CC(=O)N(Cc2ccccc2)C1 (stereo unspecified)	inactive: 101%
COc1ccc(C(=O)C2CCCN(C(=O)COc3ccc(C(C)=O)cc3)C2)cc1F (stereo unspecified)	inconclusive: 92.8%
Cc1ccc(/C=C/C(=O)N2CC(=O)Nc3ccccc32)o1	inconclusive: 97.7%
COCCNC(=O)CSc1nnc(-c2ccc(C)cc2)c(-c2ccc(C)cc2)n1	inconclusive: 90.6%

In another format: results already given.
SMILES | binding response (% of control)
CCN1CCCC1CNCC(=O)Nc1ccc(OC(F)(F)F)cc1 (stereo unspecified) | inconclusive: 113%
CCCN1C(=O)c2[nH]nc(-c3cc(Cl)c(C)cc3O)c2C1c1ccc(O)c(OC)c1 (stereo unspecified) | inconclusive: 81.8%
OC1CCCN(CC(O)COC(c2ccccc2)c2ccccc2)C1 (stereo unspecified) | inconclusive: 111%
Cc1ccc(CSc2nnc([C@@H]3CCCN3C(=O)OC(C)(C)C)o2)cc1 | inconclusive: 91.8%
O=C(c1ccc(CSc2nc3ccncc3[nH]2)cc1)N1CCCCCC1 | inconclusive: 113%
c1ccc(-c2nnc(-c3ccncc3)nc2-c2ccccc2)cc1 | inconclusive: 89.7%
Cc1cc(NC(=S)N(CCCN2CCN(C)CC2)Cc2ccco2)ccc1Cl | inconclusive: 82%
CNC(=O)Nc1ccc2nc(C)oc2c1 | inconclusive: 46.4%
CCOC(=O)C1(CCOc2ccccc2)CCN(Cc2ccc(-n3cccn3)cc2)CC1 | inactive: 98.9%
COCCOC(=O)c1c(C)oc2ccc(OCC=C(C)C)cc12 | inactive: 110%
COc1ccc(C(=O)C2CCCN(C(=O)COc3ccc(C(C)=O)cc3)C2)cc1F (stereo unspecified) | inconclusive: 92.8%
Cc1ccc(/C=C/C(=O)N2CC(=O)Nc3ccccc32)o1 | inconclusive: 97.7%
COCCNC(=O)CSc1nnc(-c2ccc(C)cc2)c(-c2ccc(C)cc2)n1 | inconclusive: 90.6%
